Results: publication doi:10.1101/467423
Results are given in words; binding and its absence hold for the method and conditions named. Some results given as binding are weak or reduced against the parent protein; the word gives no strength.

By UniProt entry, the sequences of proteins in these tests, tags left out. Where a name states a change or a piece, a line headed by the entry shows the natural chain unless it says otherwise. Residues count along the entry.
UniProt P13020, 50-174: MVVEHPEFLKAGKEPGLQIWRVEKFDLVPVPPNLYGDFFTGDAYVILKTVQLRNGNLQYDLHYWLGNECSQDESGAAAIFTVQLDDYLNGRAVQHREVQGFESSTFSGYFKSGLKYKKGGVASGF

Assays:
Experiment in all cases: crystal structure
[1] = target: Plasmodium falciparum actin I H74Q mutant (P. falciparum) (UniProt Q8I4X0)
[2] = target: Plasmodium falciparum actin I, wild type (P. falciparum) (UniProt Q8I4X0)
[3] = target: Plasmodium falciparum actin I A272W mutant (P. falciparum) (UniProt Q8I4X0)
[4] = target: Plasmodium berghei actin II, wild type (P. berghei (from the name PbActII; not spelled out)) (UniProt Q4YU79)
[5] = target: Plasmodium falciparum actin I G115A mutant (P. falciparum) (UniProt Q8I4X0)
[6] = target: Plasmodium falciparum actin I F54Y mutant (P. falciparum) (UniProt Q8I4X0)

Measured: binding

Mouse gelsolin segment 1 (from UniProt P13020) (domain or fragment)
binds: [1] | [2] | [3] | [4] | [5] | [6]
